In the assay the target is EZH2 (human (endogenous in human PCa cell lines PC3 or LNCaP)) (UniProt Q15910). The assay can be described thus: co-IP; endogenous proteins; Pierce Co-IP kit; cells lysed in IP lysis buffer, lysates sonicated, pre-cleared with protein A agarose 1 h at 4°C, antibodies (anti-ZNF217, anti-EZH2, H3K27me3) overnight at 4°C; western blot; cell line not stated. (In general: Immunoblotting shows a protein as a band on a membrane.)

Chains of the proteins cited; added tags and fusions are not shown.
UniProt Q15910: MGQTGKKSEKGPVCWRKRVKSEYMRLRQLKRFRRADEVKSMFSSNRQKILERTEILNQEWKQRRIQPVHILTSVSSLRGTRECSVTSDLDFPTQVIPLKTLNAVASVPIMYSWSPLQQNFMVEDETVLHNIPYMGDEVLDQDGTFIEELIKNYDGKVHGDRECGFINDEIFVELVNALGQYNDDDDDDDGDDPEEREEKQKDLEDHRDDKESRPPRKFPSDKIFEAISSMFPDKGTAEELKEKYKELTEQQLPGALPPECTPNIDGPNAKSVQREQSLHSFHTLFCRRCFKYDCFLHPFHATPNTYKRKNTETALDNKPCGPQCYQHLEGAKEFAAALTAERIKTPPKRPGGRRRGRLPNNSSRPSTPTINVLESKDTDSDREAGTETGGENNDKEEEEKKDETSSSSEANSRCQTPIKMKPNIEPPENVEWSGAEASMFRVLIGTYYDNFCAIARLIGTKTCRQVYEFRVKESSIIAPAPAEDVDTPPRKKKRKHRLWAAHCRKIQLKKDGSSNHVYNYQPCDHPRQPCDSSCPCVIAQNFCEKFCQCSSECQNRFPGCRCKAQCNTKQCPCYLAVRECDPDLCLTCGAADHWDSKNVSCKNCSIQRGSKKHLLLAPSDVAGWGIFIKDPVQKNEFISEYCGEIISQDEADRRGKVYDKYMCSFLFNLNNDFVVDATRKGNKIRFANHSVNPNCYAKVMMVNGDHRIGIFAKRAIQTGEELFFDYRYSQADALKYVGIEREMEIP
UniProt O75362: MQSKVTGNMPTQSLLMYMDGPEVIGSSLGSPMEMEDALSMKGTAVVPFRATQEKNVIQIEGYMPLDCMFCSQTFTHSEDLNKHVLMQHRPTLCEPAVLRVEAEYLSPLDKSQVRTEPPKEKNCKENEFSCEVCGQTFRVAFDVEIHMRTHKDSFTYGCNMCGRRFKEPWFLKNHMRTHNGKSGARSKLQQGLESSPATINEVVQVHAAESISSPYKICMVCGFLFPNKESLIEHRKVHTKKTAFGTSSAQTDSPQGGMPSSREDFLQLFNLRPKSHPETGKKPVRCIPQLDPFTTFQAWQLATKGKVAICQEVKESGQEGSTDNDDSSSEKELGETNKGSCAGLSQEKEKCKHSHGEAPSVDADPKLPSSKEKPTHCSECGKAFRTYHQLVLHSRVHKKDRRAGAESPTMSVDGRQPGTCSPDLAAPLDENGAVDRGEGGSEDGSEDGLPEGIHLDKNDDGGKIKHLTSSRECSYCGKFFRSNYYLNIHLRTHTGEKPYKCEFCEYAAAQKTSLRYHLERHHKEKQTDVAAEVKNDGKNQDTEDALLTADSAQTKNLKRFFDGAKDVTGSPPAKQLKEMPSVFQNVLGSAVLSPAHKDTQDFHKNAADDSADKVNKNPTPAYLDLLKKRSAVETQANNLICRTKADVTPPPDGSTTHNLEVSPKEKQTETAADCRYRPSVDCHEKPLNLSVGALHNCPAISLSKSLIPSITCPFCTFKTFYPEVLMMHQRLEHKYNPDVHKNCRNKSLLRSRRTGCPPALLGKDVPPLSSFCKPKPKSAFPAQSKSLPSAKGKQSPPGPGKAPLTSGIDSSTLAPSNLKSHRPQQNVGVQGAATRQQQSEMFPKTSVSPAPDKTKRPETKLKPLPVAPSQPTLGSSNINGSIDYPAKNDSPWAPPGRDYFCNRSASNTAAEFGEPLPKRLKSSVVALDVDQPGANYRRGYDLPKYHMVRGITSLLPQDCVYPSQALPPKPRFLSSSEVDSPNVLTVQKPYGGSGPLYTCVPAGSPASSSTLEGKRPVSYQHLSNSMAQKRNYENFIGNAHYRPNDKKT

No constants are given. Whether binding was seen depends on the method and setting. Binding seen in cells or lysates may run through a third protein. Some binding calls cover weakened binding; strength is not graded here.

“Zinc-figure protein 217 (ZNF217) (from UniProt O75362 1-1048)”: the binding result is reported as “binds”.

(Values after publication PMC5356707.)
